No constants are given. Whether binding was seen depends on the method and setting. Binding seen in cells or lysates may run through a third protein. Some binding calls cover weakened binding; strength is not graded here. For some of these results: Sequences can lack the tags named with a protein.
T1: endogenous pyrin in human neutrophils (human (endogenous in neutrophils)) (UniProt O15553)
T1 sequence: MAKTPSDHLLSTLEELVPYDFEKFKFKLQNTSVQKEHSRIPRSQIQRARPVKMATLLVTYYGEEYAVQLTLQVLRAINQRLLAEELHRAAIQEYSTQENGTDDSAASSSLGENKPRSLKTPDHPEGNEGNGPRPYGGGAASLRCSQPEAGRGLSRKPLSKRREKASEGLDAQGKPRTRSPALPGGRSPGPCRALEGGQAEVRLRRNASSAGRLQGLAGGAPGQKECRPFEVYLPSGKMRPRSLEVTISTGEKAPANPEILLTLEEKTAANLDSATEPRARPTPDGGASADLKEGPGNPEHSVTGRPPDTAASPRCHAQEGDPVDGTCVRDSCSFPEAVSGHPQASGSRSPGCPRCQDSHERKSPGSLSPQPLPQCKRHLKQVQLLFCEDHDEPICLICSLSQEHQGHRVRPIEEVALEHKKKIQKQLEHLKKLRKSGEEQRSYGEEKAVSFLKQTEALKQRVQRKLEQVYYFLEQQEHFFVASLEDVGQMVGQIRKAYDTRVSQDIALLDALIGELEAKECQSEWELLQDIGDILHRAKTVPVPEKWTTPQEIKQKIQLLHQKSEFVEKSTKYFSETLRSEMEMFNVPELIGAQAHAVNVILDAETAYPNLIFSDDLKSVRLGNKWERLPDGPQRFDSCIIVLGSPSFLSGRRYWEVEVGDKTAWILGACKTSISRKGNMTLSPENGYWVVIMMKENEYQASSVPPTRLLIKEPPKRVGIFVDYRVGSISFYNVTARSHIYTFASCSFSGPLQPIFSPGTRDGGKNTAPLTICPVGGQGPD

Chains of the proteins cited; added tags and fusions are not shown. Lines headed by an entry give the natural chain unless they say otherwise; changes in a name come on top. Residues count along the entry.
UniProt P61769: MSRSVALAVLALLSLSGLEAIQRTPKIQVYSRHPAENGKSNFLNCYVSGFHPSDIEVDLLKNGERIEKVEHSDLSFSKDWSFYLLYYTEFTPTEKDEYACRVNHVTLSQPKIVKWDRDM
UniProt O43586: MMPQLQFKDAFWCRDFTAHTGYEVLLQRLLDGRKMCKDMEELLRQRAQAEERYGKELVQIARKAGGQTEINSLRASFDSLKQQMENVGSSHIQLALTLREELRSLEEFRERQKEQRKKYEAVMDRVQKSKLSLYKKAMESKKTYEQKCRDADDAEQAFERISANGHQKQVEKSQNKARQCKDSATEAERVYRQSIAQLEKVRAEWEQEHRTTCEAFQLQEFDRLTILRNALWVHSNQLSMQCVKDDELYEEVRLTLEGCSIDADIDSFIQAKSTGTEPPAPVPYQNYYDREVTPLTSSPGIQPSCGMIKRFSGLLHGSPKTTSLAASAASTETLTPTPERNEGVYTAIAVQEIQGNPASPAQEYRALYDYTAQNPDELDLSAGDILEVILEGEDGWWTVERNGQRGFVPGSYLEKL
UniProt P29466, residues 120-297: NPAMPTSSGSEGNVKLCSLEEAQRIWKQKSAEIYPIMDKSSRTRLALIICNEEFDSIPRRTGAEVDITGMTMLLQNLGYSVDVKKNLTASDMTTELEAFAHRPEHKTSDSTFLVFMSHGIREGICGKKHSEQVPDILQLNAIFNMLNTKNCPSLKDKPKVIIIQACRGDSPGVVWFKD

T2: FLAG-tagged pyrin E10-2 (aa 660–727) (human) (UniProt O15553)
T2 sequence: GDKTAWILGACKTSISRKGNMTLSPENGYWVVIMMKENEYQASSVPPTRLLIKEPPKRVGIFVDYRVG

T3: FLAG-tagged full-length pyrin (human) (UniProt O15553)
T3 sequence: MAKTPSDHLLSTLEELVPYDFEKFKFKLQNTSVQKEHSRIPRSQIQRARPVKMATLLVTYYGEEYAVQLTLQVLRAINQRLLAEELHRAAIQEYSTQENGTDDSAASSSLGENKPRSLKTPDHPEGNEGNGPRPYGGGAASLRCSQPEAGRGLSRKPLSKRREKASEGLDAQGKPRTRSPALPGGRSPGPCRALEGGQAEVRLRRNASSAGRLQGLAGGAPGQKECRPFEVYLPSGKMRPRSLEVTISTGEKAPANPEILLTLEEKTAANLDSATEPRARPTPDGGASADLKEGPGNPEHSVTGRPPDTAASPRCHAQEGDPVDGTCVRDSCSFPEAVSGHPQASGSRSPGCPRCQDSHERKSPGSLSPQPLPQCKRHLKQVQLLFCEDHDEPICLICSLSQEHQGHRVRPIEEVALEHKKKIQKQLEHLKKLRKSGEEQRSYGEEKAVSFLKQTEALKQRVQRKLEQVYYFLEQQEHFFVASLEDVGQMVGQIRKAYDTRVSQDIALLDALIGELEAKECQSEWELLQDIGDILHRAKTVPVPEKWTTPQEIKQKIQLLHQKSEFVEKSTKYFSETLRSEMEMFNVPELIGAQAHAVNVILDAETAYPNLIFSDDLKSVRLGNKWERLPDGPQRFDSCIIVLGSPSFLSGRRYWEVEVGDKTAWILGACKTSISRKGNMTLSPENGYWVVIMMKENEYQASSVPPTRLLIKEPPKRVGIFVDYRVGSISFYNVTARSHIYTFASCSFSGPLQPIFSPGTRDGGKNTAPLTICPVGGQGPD

T4: FLAG-tagged full-length pyrin with M694V mutation (human) (UniProt O15553)
T4 sequence: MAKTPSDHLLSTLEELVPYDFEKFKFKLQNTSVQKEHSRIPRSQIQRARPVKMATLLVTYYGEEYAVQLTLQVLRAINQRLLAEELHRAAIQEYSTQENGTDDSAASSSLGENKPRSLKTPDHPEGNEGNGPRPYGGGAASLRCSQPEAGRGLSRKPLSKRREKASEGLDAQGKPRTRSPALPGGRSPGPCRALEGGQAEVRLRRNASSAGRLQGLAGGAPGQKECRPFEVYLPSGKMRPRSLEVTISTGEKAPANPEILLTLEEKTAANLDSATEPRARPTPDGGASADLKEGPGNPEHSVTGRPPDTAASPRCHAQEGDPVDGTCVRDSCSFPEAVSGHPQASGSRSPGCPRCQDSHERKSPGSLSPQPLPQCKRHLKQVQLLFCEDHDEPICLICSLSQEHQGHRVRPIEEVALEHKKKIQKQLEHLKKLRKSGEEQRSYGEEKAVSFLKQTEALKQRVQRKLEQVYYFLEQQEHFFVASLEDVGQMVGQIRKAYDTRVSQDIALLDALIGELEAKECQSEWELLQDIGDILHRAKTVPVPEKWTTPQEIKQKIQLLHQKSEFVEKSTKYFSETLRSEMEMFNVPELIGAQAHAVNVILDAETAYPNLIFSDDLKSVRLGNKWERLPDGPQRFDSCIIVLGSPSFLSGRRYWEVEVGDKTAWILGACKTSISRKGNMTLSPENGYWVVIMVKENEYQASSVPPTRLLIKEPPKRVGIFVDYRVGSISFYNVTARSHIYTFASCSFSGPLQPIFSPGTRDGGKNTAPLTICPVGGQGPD

T5: FLAG-tagged pyrin E10-1 (aa 598–659) (human) (UniProt O15553)
T5 sequence: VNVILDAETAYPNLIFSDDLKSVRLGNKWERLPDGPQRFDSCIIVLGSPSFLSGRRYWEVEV

T6: FLAG-tagged pyrin E10-3 (aa 728–781) (human) (UniProt O15553)
T6 sequence: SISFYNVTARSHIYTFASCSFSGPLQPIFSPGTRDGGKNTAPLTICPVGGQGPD

T7: FLAG-tagged pyrin E10-2 fragment with M694V mutation (human) (UniProt O15553)
T7 sequence: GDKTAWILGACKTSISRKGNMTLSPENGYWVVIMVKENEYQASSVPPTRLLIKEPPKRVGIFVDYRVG


Tests used:
[1] = biological target: T1, endogenous pyrin in human neutrophils (human (endogenous in neutrophils)); assay: proximity ligation; Duolink kit; human neutrophils stimulated with LPS and MSU crystals; anti-pyrin mouse monoclonal Ab with PLUS probe, anti-β2MG mouse monoclonal Ab with MINUS probe
[2] = biological target: T2, FLAG-tagged pyrin E10-2 (aa 660–727) (human); assay: co-IP; Lenti-X 293T cells co-transfected; lysis buffer 20 mM Tris–HCl pH 6.0, 120 mM NaCl, 5% glycerol, 0.5% Triton X-100; anti-FLAG Ab agarose beads, 1 h at 4 °C; blot for V5; some samples with or without co-expressed V5-β2MG
[3] = biological target: T3, FLAG-tagged full-length pyrin (human); assay: co-IP; competition in cells: Lenti-X 293T cells expressing FLAG-pyrin (wild type or M694V) and V5-β2MG with or without V5-p20; anti-FLAG Ab agarose
[4] = biological target: T3, FLAG-tagged full-length pyrin (human); assay: co-IP; Lenti-X 293T cells co-transfected; lysis buffer 20 mM Tris–HCl pH 6.0, 120 mM NaCl, 5% glycerol, 0.5% Triton X-100; anti-FLAG Ab agarose beads, 1 h at 4 °C; blot for V5; some samples with or without co-expressed V5-β2MG
[5] = biological target: T4, FLAG-tagged full-length pyrin with M694V mutation (human); assay: as above
[6] = biological target: T3, FLAG-tagged full-length pyrin (human); assay: co-IP; Lenti-X 293T cells expressing FLAG-pyrin and V5-ASC with V5-tagged wild-type or A230T PSTPIP1, no β2MG overexpression; anti-FLAG Ab agarose beads
[7] = biological target: T5, FLAG-tagged pyrin E10-1 (aa 598–659) (human); assay: co-IP; Lenti-X 293T cells co-transfected; lysis buffer 20 mM Tris–HCl pH 6.0, 120 mM NaCl, 5% glycerol, 0.5% Triton X-100; anti-FLAG Ab agarose beads, 1 h at 4 °C; blot for V5; some samples with or without co-expressed V5-β2MG
[8] = biological target: T6, FLAG-tagged pyrin E10-3 (aa 728–781) (human); assay: as above
[9] = biological target: T7, FLAG-tagged pyrin E10-2 fragment with M694V mutation (human); assay: as above
[10] = biological target: T4, FLAG-tagged full-length pyrin with M694V mutation (human); assay: co-IP; competition in cells: Lenti-X 293T cells expressing FLAG-pyrin (wild type or M694V) and V5-β2MG with or without V5-p20; anti-FLAG Ab agarose
[11] = biological target: T3, FLAG-tagged full-length pyrin (human); assay: co-IP; Lenti-X 293T cells; hypotonic lysis buffer (20 mM Tris–HCl pH 6.0, 10 mM KCl, 1.5 mM MgCl2, 5% glycerol), cytoplasmic proteins only, NaCl added to 120 mM; FLAG-pyrin constructs precipitated
[12] = biological target: V5-tagged β2-microglobulin (human) (UniProt P61769); assay: co-IP; reciprocal: Lenti-X 293T cells co-transfected; same lysis buffer; anti-V5 Ab magnet beads, 1 h at 4 °C; blot for FLAG

| Molecule | binding [2] | binding [3] | binding [4] | binding [5] | further results |
| --- | --- | --- | --- | --- | --- |
| endogenous β2-microglobulin in human neutrophils (from UniProt P61769 21-119) |  |  |  |  | binding [1]: binds |
| V5-tagged PSTPIP1 A230T (from UniProt O43586 1-416) |  |  |  |  | binding [6]: binds |
| V5-tagged β2-microglobulin (from UniProt P61769 21-119) | binds | binds | binds | binds | binding [7]: binds; binding [8]: binds; binding [9]: binds; binding [10]: binds; binding [11]: binds |
| FLAG-tagged full-length pyrin (protein, UniProt O15553 1-781) MAKTPSDHLLSTLEELVPYDFEKFKFKLQNTSVQKEHSRIPRSQIQRARPVKMATLLVTYYGEEYAVQLTLQVLRAINQRLLAEELHRAAIQEYSTQENGTDDSAASSSLGENKPRSLKTPDHPEGNEGNGPRPYGGGAASLRCSQPEAGRGLSRKPLSKRREKASEGLDAQGKPRTRSPALPGGRSPGPCRALEGGQAEVRLRRNASSAGRLQGLAGGAPGQKECRPFEVYLPSGKMRPRSLEVTISTGEKAPANPEILLTLEEKTAANLDSATEPRARPTPDGGASADLKEGPGNPEHSVTGRPPDTAASPRCHAQEGDPVDGTCVRDSCSFPEAVSGHPQASGSRSPGCPRCQDSHERKSPGSLSPQPLPQCKRHLKQVQLLFCEDHDEPICLICSLSQEHQGHRVRPIEEVALEHKKKIQKQLEHLKKLRKSGEEQRSYGEEKAVSFLKQTEALKQRVQRKLEQVYYFLEQQEHFFVASLEDVGQMVGQIRKAYDTRVSQDIALLDALIGELEAKECQSEWELLQDIGDILHRAKTVPVPEKWTTPQEIKQKIQLLHQKSEFVEKSTKYFSETLRSEMEMFNVPELIGAQAHAVNVILDAETAYPNLIFSDDLKSVRLGNKWERLPDGPQRFDSCIIVLGSPSFLSGRRYWEVEVGDKTAWILGACKTSISRKGNMTLSPENGYWVVIMMKENEYQASSVPPTRLLIKEPPKRVGIFVDYRVGSISFYNVTARSHIYTFASCSFSGPLQPIFSPGTRDGGKNTAPLTICPVGGQGPD |  |  |  |  | binding [12]: binds |

Continued, in another order:

| binding [2] | binding [3] | binding [4] | binding [5] | Molecule | further results |
| --- | --- | --- | --- | --- | --- |
| binds | binds |  |  | V5-tagged caspase-1 p20 subunit (from UniProt P29466 120-297) (domain or fragment) |  |
|  |  | binds | binds | V5-tagged wild-type proline–serine–threonine phosphatase interacting protein 1 (PSTPIP1) (from UniProt O43586 1-416) |  |

Source: article PMC8654936
